Test results: patent US9868695B2 (priority 2014, dated 2018)

Columns and labels:
[1] = tested on: HCT-116; experiment: Antiproliferative activity, MTT assay, HCT-116; type: cell-based; conditions: Homo sapiens, 48 h
Description: (§1) Human colon cancer cell lines HCT-116 (NCI, passage no. 5) and Colo-205 116 (NCI, passage no. 3) were procured from National Cancer Institute, USA. HCT-116 and Colo-205 cells were grown in McCoy's 5A and RPMI growth medium respectively containing 10% FCS, 100 U penicillin and […] per mL medium. Cells were grown in CO2 incubator (Thermocon Electron Corporation, Houston, Tex.) at 37° C. with 95% humidity and 5% CO2 gas environment. Cells treated with tested materials were dissolved in DMSO while the untreated control cultures received only the vehicle (DMSO<0.2%). Cells were seeded in 96 well plates and exposed to tested compounds at various concentrations for 48 h time interval. MTT dye (2.5 mg/ml in PBS) was added 4 hrs priors to experiment termination. The plates were then centrifuged at 1500 rpm for 15 min and the supernatant was discarded, and MTT formazan crystals were dissolved in 150 μl of DMSO. The OD measured at 570 nm with reference wavelength of 620 nm.
(§2) The percentages of cell viability and growth inhibition were calculated using formulas: […]

[2] = tested on: Colo-205; experiment: Antiproliferative activity, MTT assay, Colo-205; type: cell-based; conditions: Homo sapiens, 48 h
Description: as §1, §2

Compound: COc1cc2c(c(OC)c1OC)-c1ccc(OC)c(=O)cc1[C@@H](NC(C)=O)CC2 [Compound 1, Colchicine]
- IC50 [1]: 50 nM
- IC50 [2]: 32 nM
